These are yes or no findings as the source states them, for the method shown. Binding seen in cells or lysates may run through a third protein. Some results given as binding are weak or reduced against the parent protein; the word gives no strength. For some assays here: Where a sequence is shown, tags or fusion partners need not be part of it.

Sequences of proteins named here, by UniProt entry; tags and fusion partners are left off. Residues count along the entry.
UniProt Q9BXM7, residues 78-581: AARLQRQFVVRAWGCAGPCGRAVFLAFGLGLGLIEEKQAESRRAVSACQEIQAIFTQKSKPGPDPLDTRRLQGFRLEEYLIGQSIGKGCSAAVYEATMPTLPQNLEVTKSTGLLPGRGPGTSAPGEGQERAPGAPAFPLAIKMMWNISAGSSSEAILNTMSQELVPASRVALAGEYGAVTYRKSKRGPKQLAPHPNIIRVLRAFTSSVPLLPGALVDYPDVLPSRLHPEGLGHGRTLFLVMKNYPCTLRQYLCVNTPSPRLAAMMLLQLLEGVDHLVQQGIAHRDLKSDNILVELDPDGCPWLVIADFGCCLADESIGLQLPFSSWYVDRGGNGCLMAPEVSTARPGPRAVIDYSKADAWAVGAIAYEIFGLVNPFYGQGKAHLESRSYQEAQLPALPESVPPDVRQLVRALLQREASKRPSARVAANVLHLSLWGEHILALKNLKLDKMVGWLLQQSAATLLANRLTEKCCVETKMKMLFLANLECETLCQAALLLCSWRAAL
UniProt O14746: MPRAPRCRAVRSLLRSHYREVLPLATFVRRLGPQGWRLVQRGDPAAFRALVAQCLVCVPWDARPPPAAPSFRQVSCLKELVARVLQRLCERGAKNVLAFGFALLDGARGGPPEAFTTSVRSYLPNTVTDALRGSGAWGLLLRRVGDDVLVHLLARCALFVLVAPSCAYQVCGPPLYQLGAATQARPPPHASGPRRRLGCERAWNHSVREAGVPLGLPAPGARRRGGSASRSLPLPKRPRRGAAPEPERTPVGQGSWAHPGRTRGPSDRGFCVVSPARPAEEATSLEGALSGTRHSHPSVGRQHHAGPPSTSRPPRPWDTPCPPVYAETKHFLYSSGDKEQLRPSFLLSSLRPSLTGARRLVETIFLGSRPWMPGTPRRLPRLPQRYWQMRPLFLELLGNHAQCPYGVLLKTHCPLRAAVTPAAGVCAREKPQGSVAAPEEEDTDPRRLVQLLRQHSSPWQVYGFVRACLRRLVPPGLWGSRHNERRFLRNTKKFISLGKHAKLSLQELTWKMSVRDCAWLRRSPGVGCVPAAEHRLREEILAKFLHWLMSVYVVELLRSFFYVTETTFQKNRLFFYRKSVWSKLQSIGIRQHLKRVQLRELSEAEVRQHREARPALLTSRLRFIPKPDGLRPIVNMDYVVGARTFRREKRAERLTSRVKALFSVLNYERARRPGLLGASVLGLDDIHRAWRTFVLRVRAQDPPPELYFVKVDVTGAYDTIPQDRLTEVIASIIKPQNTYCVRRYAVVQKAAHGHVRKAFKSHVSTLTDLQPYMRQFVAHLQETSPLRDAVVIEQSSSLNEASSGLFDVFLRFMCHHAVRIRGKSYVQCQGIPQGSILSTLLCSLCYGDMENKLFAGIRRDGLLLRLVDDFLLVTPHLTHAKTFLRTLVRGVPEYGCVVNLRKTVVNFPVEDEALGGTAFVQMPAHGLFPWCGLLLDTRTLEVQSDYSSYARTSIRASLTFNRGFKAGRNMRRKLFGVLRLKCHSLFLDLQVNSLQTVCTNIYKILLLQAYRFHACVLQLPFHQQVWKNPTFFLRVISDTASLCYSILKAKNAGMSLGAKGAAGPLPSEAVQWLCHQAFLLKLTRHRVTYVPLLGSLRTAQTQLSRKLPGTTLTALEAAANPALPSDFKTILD

In experiment [1] the target is endogenous PINK1 (SH-SY5Y cells) (human (endogenous in SH-SY5Y)) (UniProt Q9BXM7). Briefly: co-IP; SH-SY5Y cell lysates immunoprecipitated with anti-PINK1 IgG (pre-immune IgG as negative control), immunoblotted; endogenous proteins.
Experiment [2] addresses T1, FLAG-tagged mitochondrial processing peptidase β (FLAG-MPPβ) (UniProt O75439).
T1 sequence: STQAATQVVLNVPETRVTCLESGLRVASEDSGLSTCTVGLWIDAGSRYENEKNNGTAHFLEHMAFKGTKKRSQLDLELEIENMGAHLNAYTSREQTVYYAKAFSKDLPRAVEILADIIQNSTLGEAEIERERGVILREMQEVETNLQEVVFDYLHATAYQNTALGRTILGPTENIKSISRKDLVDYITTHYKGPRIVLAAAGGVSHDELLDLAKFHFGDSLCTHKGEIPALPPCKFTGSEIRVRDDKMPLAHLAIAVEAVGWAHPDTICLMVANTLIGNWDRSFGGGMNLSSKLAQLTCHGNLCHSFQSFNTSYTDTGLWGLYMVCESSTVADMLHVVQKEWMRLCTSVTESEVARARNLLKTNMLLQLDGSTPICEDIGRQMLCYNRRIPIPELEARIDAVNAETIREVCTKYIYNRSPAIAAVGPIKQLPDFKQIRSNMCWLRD
Kind of experiment: co-IP; HEK293 cells transfected (24 h or 48 h) with FLAG-MPPβ and Myc-PINK1 or hTERT-HA; total cell lysates immunoprecipitated with anti-FLAG antibody, immunoblotted. On the technique in general: A western blot detects proteins with antibodies after separation by electrophoresis.

Regarding “endogenous hTERT (SH-SY5Y cells) (from UniProt O14746 1-1132)”, the binding entry in experiment [1] is “binds”.

As for “HA-tagged human telomerase reverse transcriptase (hTERT-HA) (from UniProt O14746 1-1132)”, in experiment [2], the binding entry was “binds”.

These data come from article PMC7280311.
